# Results are given in words; binding and its absence hold for the method and conditions named. Binding seen in cells or lysates may run through a third protein. Some binding calls cover weakened binding; strength is not graded here. Tags and fused reporters may be left off the sequences shown.
# By UniProt entry, the sequences of proteins in these tests, tags left out.
# UniProt Q14790: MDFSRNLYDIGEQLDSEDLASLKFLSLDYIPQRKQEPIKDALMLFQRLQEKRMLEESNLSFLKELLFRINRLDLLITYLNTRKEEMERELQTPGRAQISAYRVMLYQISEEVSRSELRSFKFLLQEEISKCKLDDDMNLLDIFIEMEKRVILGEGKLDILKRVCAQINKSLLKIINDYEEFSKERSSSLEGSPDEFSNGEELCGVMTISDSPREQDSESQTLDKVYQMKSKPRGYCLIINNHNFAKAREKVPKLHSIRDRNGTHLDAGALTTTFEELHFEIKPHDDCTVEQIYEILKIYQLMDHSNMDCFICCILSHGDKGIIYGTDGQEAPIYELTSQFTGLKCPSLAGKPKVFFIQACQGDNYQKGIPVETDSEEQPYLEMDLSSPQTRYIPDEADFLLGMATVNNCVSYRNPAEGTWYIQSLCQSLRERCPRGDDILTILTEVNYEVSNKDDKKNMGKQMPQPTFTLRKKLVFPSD
# UniProt P29466: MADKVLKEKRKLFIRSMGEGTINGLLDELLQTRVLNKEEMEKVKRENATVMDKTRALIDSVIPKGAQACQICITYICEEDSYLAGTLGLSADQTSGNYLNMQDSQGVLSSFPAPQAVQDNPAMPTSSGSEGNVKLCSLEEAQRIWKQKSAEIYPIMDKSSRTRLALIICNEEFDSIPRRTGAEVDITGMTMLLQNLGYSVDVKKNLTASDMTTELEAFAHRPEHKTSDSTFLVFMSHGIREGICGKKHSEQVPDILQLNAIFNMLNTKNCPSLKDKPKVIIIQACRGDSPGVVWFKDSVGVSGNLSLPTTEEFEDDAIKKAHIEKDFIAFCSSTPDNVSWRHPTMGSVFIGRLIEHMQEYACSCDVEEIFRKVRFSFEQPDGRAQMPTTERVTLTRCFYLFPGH
# Target: T1, NLRP10-FLAG (human) (UniProt Q86W26)
# T1 sequence: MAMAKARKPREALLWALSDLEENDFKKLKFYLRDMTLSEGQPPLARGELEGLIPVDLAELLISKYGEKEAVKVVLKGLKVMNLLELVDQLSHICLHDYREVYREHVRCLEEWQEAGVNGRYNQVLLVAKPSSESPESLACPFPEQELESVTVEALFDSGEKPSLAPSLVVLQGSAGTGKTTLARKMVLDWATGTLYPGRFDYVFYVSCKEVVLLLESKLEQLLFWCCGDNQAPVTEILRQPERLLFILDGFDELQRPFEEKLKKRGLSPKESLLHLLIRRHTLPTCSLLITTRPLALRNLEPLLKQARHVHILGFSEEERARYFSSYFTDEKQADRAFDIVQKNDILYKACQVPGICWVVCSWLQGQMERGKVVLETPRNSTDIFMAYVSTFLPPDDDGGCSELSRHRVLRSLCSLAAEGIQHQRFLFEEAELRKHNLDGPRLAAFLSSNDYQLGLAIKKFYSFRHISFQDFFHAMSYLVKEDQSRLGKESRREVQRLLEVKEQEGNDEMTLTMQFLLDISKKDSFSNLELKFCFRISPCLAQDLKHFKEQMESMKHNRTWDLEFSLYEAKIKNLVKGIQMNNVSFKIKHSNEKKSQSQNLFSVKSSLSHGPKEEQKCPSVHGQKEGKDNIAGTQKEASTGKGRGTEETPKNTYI
# Assay: co-IP; NLRP10-FLAG co-transfected with caspase-HA constructs in 293T cells; IP lysis/wash buffer, 1 mg total lysate; pulled down with anti-FLAG resin, eluted with FLAG peptide; Western blot
row,binding,Substance
1,binds,caspase-8-HA (from UniProt Q14790 1-479) (enzyme)
2,binds,caspase-1-HA (from UniProt P29466 1-404) (enzyme)
